The other results are listed elsewhere or left out. Single values are uncertain here, since repeats match poorly.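 Free-swimming zebrafish larvae were assessed for O-bend response probability to dark flashes (naive: first five; training: remaining flashes across four 60-flash blocks; test: later 60-flash block) and for OMR turning toward alternating leftward/rightward LED motion. Six treated larvae were compared against sixty 0.1% DMSO controls; hits required |SSMD|≥2.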
Key:
Settings in all cases: 10 µM; pre-incubation: 30-90 min
[1] = test system: Danio rerio larvae (5 dpf, TLF); experiment: OMR-Perf (SSMD vs DMSO vehicle); higher = higher than vehicle (e.g. higher dark-flash O-bend response probability, or better optomotor performance)
[2] = test system: Danio rerio larvae (5 dpf, TLF); experiment: Prob-Test (SSMD vs DMSO vehicle); higher = higher than vehicle (e.g. higher dark-flash O-bend response probability, or better optomotor performance)
[3] = test system: Danio rerio larvae (5 dpf, TLF); experiment: Prob-Naive (SSMD vs DMSO vehicle); higher = higher than vehicle (e.g. higher dark-flash O-bend response probability, or better optomotor performance)
[4] = test system: Danio rerio larvae (5 dpf, TLF); experiment: Prob-Train (SSMD vs DMSO vehicle); higher = higher than vehicle (e.g. higher dark-flash O-bend response probability, or better optomotor performance)

In the case of `O=C1CCC[C@@H]2[C@@H]3CCC[N+]4([O-])CCC[C@H](CN12)[C@@H]34` (stereo not given in full) [Oxymatrine], the OMR-Perf [1] is reported as -0.0735, the Prob-Test [2] is reported as -0.302 and the Prob-Naive [3] is reported as -0.189. The Prob-Train [4] was -0.0573.

With `Cn1cc[nH]c1=S` [Methimazole] the OMR-Perf [1] was -0.534, the Prob-Test [2] was -0.147 and the Prob-Naive [3] was 0.0533. It also gave a Prob-Train [4] of -0.324.

Compound `CCCCOc1ccc(C(=O)Nc2ccc(F)cc2F)cc1` has an OMR-Perf [1] of -0.0246, a Prob-Test [2] of -0.925 and a Prob-Naive [3] of -1.32. For the same compound, the Prob-Train [4] was -1.81.

With `O=C([O-])CC(O)(CC(=O)[O-])C(=O)[O-].O=C([O-])CC(O)(CC(=O)[O-])C(=O)[O-].[Bi+3].[K+].[K+].[K+].[K+].[K+]` [Bismuth Subcitrate Potassium] the OMR-Perf [1] was -0.26, the Prob-Test [2] was -0.218 and the Prob-Naive [3] was 0.0912. For the same compound, the Prob-Train [4] was 0.114.

For `N[C@@H](C(=O)N[C@@H]1C(=O)N2C(C(=O)O)=C(Cl)CS[C@H]12)c1ccccc1` [Cefaclor (Ceclor)], the OMR-Perf [1] was -0.458, the Prob-Test [2] was -0.53 and the Prob-Naive [3] was 0.448. It also gave a Prob-Train [4] of 0.646.

`COc1ccc(F)c(F)c1C(=O)c1cnc(NC2CCN(S(C)(=O)=O)CC2)nc1N` showed an OMR-Perf [1] of -0.0185, a Prob-Test [2] of 0.991 and a Prob-Naive [3] of 0.289. The Prob-Train [4] was 1.04.

Compound `C[C@@H]1[C@H](C)CC[C@]2(C(=O)O)CC[C@]3(C)C(=CC[C@H]4[C@@]5(C)C[C@@H](O)[C@H](O)[C@@](C)(CO)[C@@H]5CC[C@]43C)[C@@H]12` [Asiatic Acid] has an OMR-Perf [1] of -0.669, a Prob-Test [2] of -0.373 and a Prob-Naive [3] of -0.931. For the same compound, the Prob-Train [4] was -1.01.

Compound `Br.Br.NCCCCCNCC12CC3CC(CC(C3)C1)C2` [IEM 1754 dihydrobroMide] has an OMR-Perf [1] of 0.738, a Prob-Test [2] of 0.166 and a Prob-Naive [3] of -0.232. For the same compound, the Prob-Train [4] was 0.204.

Work on `NC[C@@H]1O[C@H](O[C@H]2[C@@H](O)[C@H](O[C@@H]3[C@@H](O)[C@H](N)C[C@@H](N)[C@H]3O[C@H]3O[C@@H](CO)[C@@H](O)[C@H](O)[C@H]3N)O[C@@H]2CO)[C@H](N)[C@@H](O)[C@@H]1O.O=S(=O)(O)O` [Paromomycin Sulfate] yielded an OMR-Perf [1] of -0.063, a Prob-Test [2] of 0.119 and a Prob-Naive [3] of 0.0603. The Prob-Train [4] was -0.309.

In the case of `O=C([O-])c1ccccc1[O-].[Bi+3].[OH-]` [Bismuth Subsalicylate], the OMR-Perf [1] is reported as -0.187, the Prob-Test [2] is reported as -0.203 and the Prob-Naive [3] is reported as 0.13. It also gave a Prob-Train [4] of -0.121.

Compound `COc1cc(NS(=O)(=O)c2ccc(N)cc2)nc(OC)n1` [Sulphadimethoxine] has an OMR-Perf [1] of -0.396, a Prob-Test [2] of -0.0724 and a Prob-Naive [3] of -0.399. The Prob-Train [4] was -0.406.

`Cl.O[C@H](CNC[C@@H](O)[C@H]1CCc2cc(F)ccc2O1)[C@@H]1CCc2cc(F)ccc2O1` [Nebivolol] was tested, and the OMR-Perf [1] was -0.698, the Prob-Test [2] was 0.0374 and the Prob-Naive [3] was -0.0337. The Prob-Train [4] was -1.11.

In the case of `c1coc(CNc2ncnc3nc[nH]c23)c1` [Kinetin], the OMR-Perf [1] is reported as -0.169, the Prob-Test [2] is reported as 0.152 and the Prob-Naive [3] is reported as 0.285. For the same compound, the Prob-Train [4] was -0.0654.

`CS(=O)(=O)CCNCc1ccc(-c2ccc3ncnc(Nc4ccc(OCc5cccc(F)c5)c(Cl)c4)c3c2)o1` [Lapatinib] was tested, and the OMR-Perf [1] was -0.279, the Prob-Test [2] was 0.0951 and the Prob-Naive [3] was -0.192. For the same compound, the Prob-Train [4] was -0.136.

`Cl.c1ccc(CC2=NCCN2)cc1` [Tolazoline HCl] gave an OMR-Perf [1] of 0.028, a Prob-Test [2] of -0.24 and a Prob-Naive [3] of -0.685. For the same compound, the Prob-Train [4] was -0.000202.

In the case of `Cc1cc(Nc2cc(N3CCN(C)CC3)nc(Sc3ccc(NC(=O)C4CC4)cc3)n2)n[nH]1` [VX-680 (Tozasertib, MK-0457)], the OMR-Perf [1] is reported as -0.0534, the Prob-Test [2] is reported as -0.38 and the Prob-Naive [3] is reported as 0.0475. It also gave a Prob-Train [4] of -0.482.

`C=C[C@@]1(C)C[C@@H](OC(=O)CS[C@@H]2C[C@H]3CC[C@@H](C2)N3C)[C@@]2(C)[C@@H]3C(=O)CC[C@@]3(CC[C@@H]2C)[C@@H](C)[C@@H]1O` [Retapamulin] was tested, and the OMR-Perf [1] was -0.445, the Prob-Test [2] was 0.178 and the Prob-Naive [3] was 0.204. For the same compound, the Prob-Train [4] was -0.0912.

Work on `O=C(O)CCc1nc(-c2ccccc2)c(-c2ccccc2)o1` [Oxaprozin] yielded an OMR-Perf [1] of -0.613, a Prob-Test [2] of -0.846 and a Prob-Naive [3] of -1.44. The Prob-Train [4] was -2.63.

`Cc1ccc(Cl)cc1N(CC(=O)Nc1c(F)cccc1F)S(C)(=O)=O` gave an OMR-Perf [1] of 0.0676, a Prob-Test [2] of 0.209 and a Prob-Naive [3] of 0.448. The Prob-Train [4] was -0.0363.

`CC(C)n1nc(-c2cc3cc(O)ccc3[nH]2)c2c(N)ncnc21` was tested, and the OMR-Perf [1] was -0.196, the Prob-Test [2] was -0.0472 and the Prob-Naive [3] was 0.249. For the same compound, the Prob-Train [4] was 0.37.

`S=C=Nc1cccc(NC(=S)NCCCCNC(=S)Nc2cccc(N=C=S)c2)c1` was tested, and the OMR-Perf [1] was -0.545, the Prob-Test [2] was 0.288 and the Prob-Naive [3] was 0.6. For the same compound, the Prob-Train [4] was 0.378.

`CCO[C@H]1OC(=O)C[C@@H]1NC(=O)[C@@H]1CCCN1C(=O)[C@@H](NC(=O)c1ccc(N)c(Cl)c1)C(C)(C)C` was tested, and the OMR-Perf [1] was 0.106, the Prob-Test [2] was -0.023 and the Prob-Naive [3] was -0.159. The Prob-Train [4] was -0.482.

For `CC(CCc1ccc(O)cc1)NCC(O)c1ccc(O)cc1.Cl` (stereo not given) [Ractopamine HCl], the OMR-Perf [1] was -0.00375, the Prob-Test [2] was -0.479 and the Prob-Naive [3] was 0.433. It also gave a Prob-Train [4] of -0.141.

`O=c1[nH]c(=O)n([C@H]2C[C@H](O)[C@@H](CO)O2)cc1C(F)(F)F` [Trifluridine] showed an OMR-Perf [1] of -0.717, a Prob-Test [2] of 0.329 and a Prob-Naive [3] of 0.493. For the same compound, the Prob-Train [4] was 0.488.

`CCOC(=O)Nc1cc(-c2ccc(C)c(NS(C)(=O)=O)c2)nn2c(C)nnc12` [Bromosporine] was tested, and the OMR-Perf [1] was -0.402, the Prob-Test [2] was 0.0249 and the Prob-Naive [3] was -0.356. The Prob-Train [4] was -0.288.

Compound `O=c1ccc2ccccc2o1` [Coumarin] has an OMR-Perf [1] of 0.0321, a Prob-Test [2] of -0.369 and a Prob-Naive [3] of -0.202. For the same compound, the Prob-Train [4] was -0.44.

`Nc1ncnc2c1ncn2[C@@H]1O[C@H](CO)[C@@H](O)[C@@H]1O` [Vidarabine] showed an OMR-Perf [1] of 0.627, a Prob-Test [2] of 0.678 and a Prob-Naive [3] of 0.493. For the same compound, the Prob-Train [4] was 0.717.

For `Cn1cc(CNCC2CCN(c3ncc(C(=O)NO)cn3)CC2)c2ccccc21`, the OMR-Perf [1] was -0.268, the Prob-Test [2] was 0.195 and the Prob-Naive [3] was 0.233. The Prob-Train [4] was 0.0894.

`CC(=O)[C@]1(O)Cc2c(O)c3c(c(O)c2[C@H](O[C@H]2C[C@H](N)[C@H](O)[C@H](C)O2)C1)C(=O)c1ccccc1C3=O.Cl` [Idarubicin HCl] gave an OMR-Perf [1] of 0.0563, a Prob-Test [2] of 0.534 and a Prob-Naive [3] of 0.121. The Prob-Train [4] was 0.0486.

For `CC(C)(C)c1ccc(-c2nc3ccccc3[nH]2)cc1`, the OMR-Perf [1] was -1.02, the Prob-Test [2] was -0.412 and the Prob-Naive [3] was 0.448. For the same compound, the Prob-Train [4] was 1.06.

In the case of `O=C(O)[C@H](O)[C@@H](O)C(=O)O.c1cnc2cc3c(cc2n1)C1CNCC3C1` [Varenicline Tartrate], the OMR-Perf [1] is reported as 0.0742, the Prob-Test [2] is reported as -0.125 and the Prob-Naive [3] is reported as 0.499. The Prob-Train [4] was -0.0872.

With `Cc1nc(N)sc1-c1ccnc(Nc2ccc(N3CCOCC3)cc2)n1` the OMR-Perf [1] was 0.193, the Prob-Test [2] was 0.19 and the Prob-Naive [3] was 0.113. For the same compound, the Prob-Train [4] was 0.237.

`COc1ccccc1S(=O)(=O)Nc1ccc2c(c1)CN(C)C(=O)N2` showed an OMR-Perf [1] of -0.421, a Prob-Test [2] of 0.294 and a Prob-Naive [3] of 0.233. For the same compound, the Prob-Train [4] was 0.174.

Work on `O=C(NC(Cc1cc(=O)[nH]c2ccccc12)C(=O)O)c1ccc(Cl)cc1` (stereo not given) [Rebamipide] yielded an OMR-Perf [1] of -0.154, a Prob-Test [2] of 0.315 and a Prob-Naive [3] of -0.337. For the same compound, the Prob-Train [4] was -0.0496.

With `O=C(O)/C=C/c1ccc(Cn2ccnc2)cc1` [Ozagrel] the OMR-Perf [1] was 0.532, the Prob-Test [2] was -0.993 and the Prob-Naive [3] was 0.118. The Prob-Train [4] was -0.238.

`C[C@H](Cc1cc2c(c(C(N)=O)c1)N(CCCO)CC2)NCCOc1ccccc1OCC(F)(F)F` [Silodosin] showed an OMR-Perf [1] of -0.288, a Prob-Test [2] of -0.106 and a Prob-Naive [3] of 0.227. For the same compound, the Prob-Train [4] was 0.0881.

`COc1cc(Nc2ncc3c(n2)-c2ccc(Cl)cc2C(c2c(F)cccc2OC)=NC3)ccc1C(=O)O` [Alisertib (MLN8237)] showed an OMR-Perf [1] of -0.583, a Prob-Test [2] of -1.38 and a Prob-Naive [3] of -2.88. The Prob-Train [4] was -2.78.

Compound `Oc1cccc(-c2nc(N3CCOCC3)c3oc4ncccc4c3n2)c1` has an OMR-Perf [1] of 0.135, a Prob-Test [2] of 0.78 and a Prob-Naive [3] of 0.255. It also gave a Prob-Train [4] of -0.204.

Compound `CCCNC(=O)NS(=O)(=O)c1ccc(Cl)cc1` [Chlorpropamide] has an OMR-Perf [1] of -0.328, a Prob-Test [2] of 0.671 and a Prob-Naive [3] of 0.4. For the same compound, the Prob-Train [4] was 0.378.

`CN(c1ncccc1CNc1nc(Nc2ccc3c(c2)CC(=O)N3)ncc1C(F)(F)F)S(C)(=O)=O.O=S(=O)(O)c1ccccc1` was tested, and the OMR-Perf [1] was 0.0622, the Prob-Test [2] was -0.113 and the Prob-Naive [3] was 0.515. The Prob-Train [4] was -0.165.
